Test results: patent publication US11592453B2, “Personalized metabolomic profiling of specialized pro-resolving mediators” (THE BRIGHAM AND WOMEN'S HOSPITAL, INC., priority 2016, dated 2023)

Assay: LC-MS/MS LM metabololipidomics of human whole blood during coagulation
Details: for highest concentrations of SPMs generated within 24 hours of coagulation in blood: healthy donors; for LM concentration, Coagulation t = 0 h, Avg / LM concentration, Coagulation t = 0.25 h, Avg / LM concentration, Coagulation t = 0.5 h, Avg / LM concentration, Coagulation t = 1 h, Avg / LM concentration, Coagulation t = 3 h, Avg / LM concentration, Coagulation t = 6 h, Avg / LM concentration, Coagulation t = 24 h, Avg: human whole blood, mean of 12 donors

SMILES	highest concentrations of SPMs generated within 24 hours of coagulation in blood [pM]	LM concentration, Coagulation t = 0 h, Avg	LM concentration, Coagulation t = 0.25 h, Avg	LM concentration, Coagulation t = 0.5 h, Avg	LM concentration, Coagulation t = 1 h, Avg	LM concentration, Coagulation t = 3 h, Avg	LM concentration, Coagulation t = 6 h, Avg	LM concentration, Coagulation t = 24 h, Avg
CC/C=C\C[C@H](O)/C=C/C=C\C=C\C=C\[C@@H](O)[C@@H](O)C/C=C\CCC(=O)O [RvD1, Resolvin D1 (7S, 8R, 17S-trihydroxy-docosa-4Z, 9E, 11E, 13Z, 15E, 19Z-hexaenoic acid)]	549	— ((—) denotes concentrations < 0.1 pg/ml)	— ((—) denotes concentrations < 0.1 pg/ml)	0.4 pg/mL	0.5 pg/mL	3.0 pg/mL	9.6 pg/mL	57.8 pg/mL
CC/C=C\C[C@H](O)[C@H](O)/C=C/C=C/C=C\C=C\[C@@H](O)C/C=C\CCC(=O)O [RvD2, Resolvin D2 (7S, 16R, 17S-trihydroxy-docosa-4Z, 8E, 10Z, 12E, 14E, 19Z-hexaenoic acid)]		— ((—) denotes concentrations < 0.1 pg/ml)	— ((—) denotes concentrations < 0.1 pg/ml)	— ((—) denotes concentrations < 0.1 pg/ml)	— ((—) denotes concentrations < 0.1 pg/ml)	— ((—) denotes concentrations < 0.1 pg/ml)	— ((—) denotes concentrations < 0.1 pg/ml)	— ((—) denotes concentrations < 0.1 pg/ml)
CC/C=C\C[C@H](O)/C=C/C=C\C[C@@H](O)/C=C/C=C/C=C\[C@@H](O)CCC(=O)O [RvD3, Resolvin D3 (4S, 11R, 17S-trihydroxy-docosa-5Z, 7E, 9E, 13Z, 15E, 19Z-hexaenoic acid)]		— ((—) denotes concentrations < 0.1 pg/ml)	— ((—) denotes concentrations < 0.1 pg/ml)	— ((—) denotes concentrations < 0.1 pg/ml)	— ((—) denotes concentrations < 0.1 pg/ml)	— ((—) denotes concentrations < 0.1 pg/ml)	— ((—) denotes concentrations < 0.1 pg/ml)	— ((—) denotes concentrations < 0.1 pg/ml)
CC/C=C\C[C@H](O)/C=C/C=C\C/C=C\C=C\[C@@H](O)C/C=C\CCC(=O)O [RvD5, Resolvin D5 (7S, 17S-dihydroxy-docosa-4Z, 8E, 10Z, 13Z, 15E, 19Z-hexaenoic acid)]	115	0.8 pg/mL	1.3 pg/mL	1.1 pg/mL	1.7 pg/mL	3.4 pg/mL	6.8 pg/mL	10.7 pg/mL
CC/C=C\C[C@H](O)/C=C/C=C\C/C=C\C/C=C\C=C\[C@@H](O)CCC(=O)O [RvD6, resolvin D6]		— ((—) denotes concentrations < 0.1 pg/ml)	— ((—) denotes concentrations < 0.1 pg/ml)	— ((—) denotes concentrations < 0.1 pg/ml)	— ((—) denotes concentrations < 0.1 pg/ml)	— ((—) denotes concentrations < 0.1 pg/ml)	— ((—) denotes concentrations < 0.1 pg/ml)	— ((—) denotes concentrations < 0.1 pg/ml)
CC[C@@H](O)/C=C/C=C\C[C@@H](O)/C=C/C=C/C=C\[C@@H](O)CCCC(=O)O [RvE1, Resolvin E1 (5S, 12R, 18R-trihydroxy-eicosa-6Z, 8E, 10E, 14Z, 16E-pentaenoic acid)]	58	— ((—) denotes concentrations < 0.1 pg/ml)	— ((—) denotes concentrations < 0.1 pg/ml)	— ((—) denotes concentrations < 0.1 pg/ml)	0.4 pg/mL	2.7 pg/mL	2.3 pg/mL	5.1 pg/mL
CC[C@@H](O)/C=C/C=C\C/C=C\C/C=C\C=C\[C@@H](O)CCCC(=O)O [RvE2, Resolvin E2 (5S, 18R-dihydroxy-eicosa-6E, 8Z, 11Z, 14Z, 16E-pentaenoic acid)]		— ((—) denotes concentrations < 0.1 pg/ml)	— ((—) denotes concentrations < 0.1 pg/ml)	— ((—) denotes concentrations < 0.1 pg/ml)	— ((—) denotes concentrations < 0.1 pg/ml)	— ((—) denotes concentrations < 0.1 pg/ml)	— ((—) denotes concentrations < 0.1 pg/ml)	— ((—) denotes concentrations < 0.1 pg/ml)
CC[C@@H](O)[C@H](O)/C=C/C=C/C=C\C/C=C\C/C=C\CCCC(=O)O [RvE3, Resolvin E3 (17R,18R-dihydroxy-eicosa-5Z, 8Z, 11Z, 13E, 15E-pentaenoic acid)]		— ((—) denotes concentrations < 0.1 pg/ml)	— ((—) denotes concentrations < 0.1 pg/ml)	— ((—) denotes concentrations < 0.1 pg/ml)	— ((—) denotes concentrations < 0.1 pg/ml)	— ((—) denotes concentrations < 0.1 pg/ml)	— ((—) denotes concentrations < 0.1 pg/ml)	— ((—) denotes concentrations < 0.1 pg/ml)
CCCCC[C@H](O)/C=C/[C@H]1OC(O)C[C@H](O)[C@@H]1C/C=C\CCCC(=O)O (stereo partly drawn) [TXB2, 9α, 11, 15S-trihydroxy-thromba-5Z, 13E-dien-1-oic acid]		3.0 pg/mL	87.2 pg/mL	671.8 pg/mL	1365.4 pg/mL	1509.6 pg/mL	1625.6 pg/mL	1959.6 pg/mL
